Reference: PubChem BioAssay AID2685 (National Center for Advancing Translational Sciences (NCATS), 2010)
This is one part of the list. Further columns of the screen follow, without active or inactive calls. Compounds called inactive in the main read-out are mostly missing here. Potencies come from curve fits of mixed quality, noted in brackets.

Test: qHTS Assay for Lipid Storage Modulators in Drosophila S3 Cells;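 for cell number change: cells counted by Cell Tracker Red CMTPX staining in the red channel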
Conditions: BODIPY lipid droplet fluorescence, 18-24 h; for cell number change: measured here: cell count max response, cells fed with added oleic acid
In short: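 Drosophila S3 cells loaded with oleic acid (400 uM, as added) and compounds at several concentrations; lipid droplets imaged by 488-nm laser-scanning cytometry, 500–530 nm intensity and object ratio to cell channel. Percent activity normalized to 20 uM Triacsin C.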

[1] = measured here: cell number channel AC50, cells fed with added oleic acid
[2] = measured here: lipid fluorescence (Fed channel) AC50, cells fed with added oleic acid

SMILES	cell number change [%]	AC50 [1]	AC50 [2]
CC(=O)C[C@H](O)CC(=O)[C@H]1OC(=O)CC/C=C\Cc2ccccc21	-37.2	29.1 µM [falling, single point]	1.16 µM [falling, single point]
COc1ccc(N(CCCN2C(=O)c3cccc4cccc(c34)C2=O)C(=O)c2cccc(OC)c2)cc1	-23.1		
CCCn1nc2cc(C(=O)NCc3ccc4c(c3)OCO4)ccc2c1OCC	-49.1	18.4 µM [falling, single point]	16.4 µM [falling, single point]
CC(NC(=O)c1ccccc1)c1ccc(Br)cc1 (centres undefined)	30.9	29.1 µM [rising, single point]	23.1 µM [rising, single point]
COc1ccc(Cl)cc1NC(=S)NCCN1CCOCC1	-21.2		29.1 µM [falling, single point]
C#CCOCCOCCOCCNc1nc(N2CCN(C(=O)CCCCCCCCCCNC(=O)[C@@H](CCSC)n3cc(CCO)nn3)CC2)nc(N2CCN(C(=O)CCCCCCCCCCNC(=O)[C@H](CCCN=C(N)N)n3cc(C[C@@H](C)CC)nn3)CC2)n1	-87.3	13 µM [falling, partial curve]	13 µM [falling, partial curve]
O=C(CCCNS(=O)(=O)c1ccc(Br)cc1)N1CC[C@@]2(O)CCCC[C@H]2C1	-29.9		16.4 µM [falling, partial curve]
O=C(NCCc1cccc(F)c1)C1CCC(=O)N(CCCc2ccccc2)C1 (centres undefined)	-6.93		0.58 µM [rising, single point]
O=C(NCC1CCCN(Cc2ccc3c(c2)OCCO3)C1)c1ccc2c(c1)OCO2 (centres undefined)	8.03		
COC(=O)c1ccc(C(C(=O)NC2CCCCC2)N(CCc2ccccc2)C(=O)Cc2cccs2)cc1 (centres undefined)	-7.56		0.517 µM [falling, partial curve, poor fit]
COc1cc(C(=O)Nc2nc3ccccc3[nH]2)ccc1OC(F)F	6.34	3.26 µM [falling, single point]	6.51 µM [falling, single point]
CCOC(=O)CNC(=O)Cn1c(C)cc2ccccc2c1=O	7.34		0.103 µM [falling, full curve, poor fit]
CN(C)CCCNC(=S)NCC(c1ccc(Cl)cc1Cl)c1c[nH]c2ccccc12 (centres undefined)	-0.833		
CCCn1c(N)c(Sc2ccc([N+](=O)[O-])cc2)c(=O)n(CCC)c1=O			0.651 µM [rising, single point]
O=C1NCC(COCc2ccco2)O1 (centres undefined)			6.51 µM [falling, full curve]
Cn1nc(CC(=O)NCc2ccc(C(F)(F)F)cc2)c2ccccc2c1=O	-23.2		
CCOC(=O)C1CCCN(C(=O)Nc2c(-c3ccccc3)noc2C)C1 (centres undefined)	-40	3.66 µM [falling, partial curve]	7.31 µM [falling, partial curve, poor fit]
Cc1ccc(C(C)C)c(OCc2ccc(C(=O)N/N=C/c3ccc(O)cc3O)cc2)c1	-37.8	16.4 µM [falling, single point]	16.4 µM [falling, single point]
COc1ccc(OC)c(C2/C(=C(\O)c3ccc4c(c3)OCCO4)C(=O)C(=O)N2CC2CCCO2)c1 (centres undefined)	3.24	0.058 µM [rising, full curve, poor fit]	29.1 µM [rising, single point]

SMILES	cell number change [%]	AC50 [1]	AC50 [2]
COc1cccc(NS(=O)(=O)c2c(C)n(C)c(=O)n(C)c2=O)c1	45.5	29.1 µM [rising, single point]	
CC(C)c1cccc(O)c(=O)c1	9.11		
CCOc1ccc(N2C(=O)CNC2=S)cc1	-13.8		16.4 µM [falling, single point]
Cc1ccc(CC2S/C(=N/c3ccccn3)NC2=O)cc1 (centres undefined)	-32.6	29.1 µM [falling, single point]	
CC(=O)c1cccc(N(CC(=O)Nc2ccc(S(=O)(=O)N3CCCC3)cc2)S(C)(=O)=O)c1	-20.8		0.259 µM [falling, full curve, poor fit]
COc1ccc(-c2ocnc2C(=O)Nc2ccc(N3CCOCC3)cc2N2CCOCC2)cc1OC	5.13		
Cc1cc(C)c2nc(N(CCCN(C)C)C(=O)c3ccc(S(=O)(=O)N4CCCCCC4)cc3)sc2c1		2.06 µM [rising, partial curve]	
CCOC(=O)c1ccc(NC(=O)CSc2nnc(NC(=O)c3ccc(S(=O)(=O)N4CCOCC4)cc3)s2)cc1	-36.5		
Cc1ccsc1C(C(=O)NC1CCCCC1)N(C(=O)c1csnn1)C1CC1 (centres undefined)	62.2	11.6 µM [rising, partial curve]	0.58 µM [rising, single point]
c1ccc(CN2CN=C(Nc3nc4ccccc4s3)NC2)cc1			0.731 µM [rising, single point]
Cc1ccc(S(=O)(=O)Nc2ccc(O)c3ncccc23)cc1	40.4	23.1 µM [rising, single point]	
CN(C(=O)c1ccc(NC(=O)Cc2cccc(NC(=O)C3CCN(C(=O)C4CC4)CC3)c2)cc1)C1CCCC1	-18.1		
CC(C)C(NC(=O)c1ccco1)C(=O)NCc1ccc(C(=O)O)cc1 (centres undefined)			5.62 µM [falling, single point]
N#Cc1ccccc1NC(=O)CSc1n[nH]c(-c2ccco2)n1	9.05		4.11 µM [rising, single point]
CCn1c(SC(C)C(=O)O)nc2sc3c(c2c1=O)CCC3 (centres undefined)	75.9	20.6 µM [rising, single point]	
CCc1ccccc1NC(=O)c1ccc2nc(N3CCOCC3)sc2c1	18.3		0.092 µM [rising, full curve, poor fit]
O=c1c(C/C=C/c2ccccc2)c(O)nc2n1CCCS2	31.5	29.1 µM [rising, single point]	
COc1cccc(C(C(=O)NC2CCCC2)N(C(=O)CNC(=O)c2ccco2)c2cccnc2)c1 (centres undefined)	-7.39		

Among those listed so far, 5 have two or more sulfur atoms:
SMILES	cell number change [%]	AC50 [1]	AC50 [2]
CC(=O)c1cccc(N(CC(=O)Nc2ccc(S(=O)(=O)N3CCCC3)cc2)S(C)(=O)=O)c1	-20.8		0.259 µM [falling, full curve, poor fit]
Cc1cc(C)c2nc(N(CCCN(C)C)C(=O)c3ccc(S(=O)(=O)N4CCCCCC4)cc3)sc2c1		2.06 µM [rising, partial curve]	
CCOC(=O)c1ccc(NC(=O)CSc2nnc(NC(=O)c3ccc(S(=O)(=O)N4CCOCC4)cc3)s2)cc1	-36.5		
Cc1ccsc1C(C(=O)NC1CCCCC1)N(C(=O)c1csnn1)C1CC1 (centres undefined)	62.2	11.6 µM [rising, partial curve]	0.58 µM [rising, single point]
CCn1c(SC(C)C(=O)O)nc2sc3c(c2c1=O)CCC3 (centres undefined)	75.9	20.6 µM [rising, single point]	
